# Data: patent US7982053B2, “Peptide deformylase inhibitors” (GlaxoSmithKline LLC, priority 2005, dated 2011)
# Where two headings read alike, the source gives them in different places. Some results were stated once for a whole list of compounds, not compound by compound.
# Biological target: T1, bacterial PDF (S. aureus or E. coli PDF, Def1 enzyme) (UniProt P68826)
# T1 sequence (P68826 1-183): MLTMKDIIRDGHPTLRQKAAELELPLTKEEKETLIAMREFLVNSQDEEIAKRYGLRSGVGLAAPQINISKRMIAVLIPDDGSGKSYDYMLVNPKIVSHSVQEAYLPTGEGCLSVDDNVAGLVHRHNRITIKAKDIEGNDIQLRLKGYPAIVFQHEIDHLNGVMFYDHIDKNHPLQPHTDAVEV
# Assay: Bacterial PDF Assay (formate dehydrogenase-coupled continuous enzyme-linked assay)
# Type: biochemical
# [1] = 25° C., substrate f-Met-Ala-Ser at KM, read-out: IC50 against bacterial PDF
# [2] = read-out: IC50 against bacterial PDF, 25° C., substrate f-Met-Ala-Ser at KM
Structure (SMILES),IC50 [1],IC50 [2]
"CC(C)(C)OC(=O)N1CCC(C(=O)NC(=O)[C@@H]2CCCN2C(=O)[C@H](CC2CCCC2)CN(O)C=O)C1 (stereo partly drawn) [Example 59, 1,1-dimethylethyl 3-({[1-((2R)-3-cyclopentyl-2-{[formyl(hydroxy)amino]methyl}propanoyl)-L-prolyl]amino}carbonyl)-1-pyrrolidinecarboxylate]",≤ 100 nM,
"Cn1ccnc1CNC(=O)NC(=O)[C@@H]1CCCN1C(=O)[C@H](CC1CCCC1)CN(O)C=O [Example 99, 1-((2R)-3-cyclopentyl-2-{[formyl(hydroxy)amino]methyl}propanoyl)-N-({[(1-methyl-1H-imidazol-2-yl)methyl]amino}carbonyl)-L-prolinamide]",≤ 100 nM,
"CC(C)OC(=O)NC(=O)[C@@H]1CCCN1C(=O)[C@H](CC1CCCC1)CN(O)C=O [Example 37, 1-((2R)-3-cyclopentyl-2-{[formyl(hydroxy)amino]methyl}propanoyl)-N-{[(1-methylethyl)oxy]carbonyl}-L-prolinamide]",≤ 100 nM,
"CC(C)NC(=O)NC(=O)[C@@H]1CCCN1C(=O)[C@H](CC1CCCC1)CN(O)C=O [Example 69, 1-((2R)-3-cyclopentyl-2-{[formyl(hydroxy)amino]methyl}propanoyl)-N-{[(1-methylethyl)amino]carbonyl}-L-prolinamide]",≤ 100 nM,
"O=CN(O)C[C@@H](CC1CCCC1)C(=O)N1CCC[C@H]1C(=O)NC(=O)C1CC1 [Example 55, 1-((2R)-3-cyclopentyl-2-{[formyl(hydroxy)amino]methyl}propanoyl)-N-(cyclopropylcarbonyl)-L-prolinamide]",≤ 100 nM,
"CN1CCC(OC(=O)NC(=O)[C@@H]2CCCN2C(=O)[C@H](CC2CCCC2)CN(O)C=O)C1 (stereo partly drawn) [Example 38, 1-((2R)-3-cyclopentyl-2-{[formyl(hydroxy)amino]methyl}propanoyl)-N-{[(1-methyl-3-pyrrolidinyl)oxy]carbonyl}-L-prolinamide]",≤ 100 nM,
"O=CN(O)C[C@@H](CC1CCCC1)C(=O)N1CCC[C@H]1C(=O)NC(=O)NCCF [Example 142, 1-((2R)-3-cyclopentyl-2-{[formyl(hydroxy)amino]methyl}propanoyl)-N-{[(2-fluoroethyl)amino]carbonyl}-L-prolinamide]",≤ 100 nM,
"O=CN(O)C[C@@H](CC1CCCC1)C(=O)N1CCC[C@H]1C(=O)NC(=O)OC1CCC1 [Example 31, N-[(cyclobutyloxy)carbonyl]-1-((2R)-3-cyclopentyl-2-{[formyl(hydroxy)amino]methyl}propanoyl)-L-prolinamide]",≤ 100 nM,
"O=CN(O)C[C@@H](CC1CCCC1)C(=O)N1CCC[C@H]1C(=O)NC(=O)C1CCC1 [Example 53, N-(cyclobutylcarbonyl)-1-((2R)-3-cyclopentyl-2-{[formyl(hydroxy)amino]methyl}propanoyl)-L-prolinamide]",≤ 100 nM,
"O=CN(O)C[C@@H](CC1CCCC1)C(=O)N1CCC[C@H]1C(=O)NC(=O)c1cc(F)ccc1F [Example 15, 1-((2R)-3-cyclopentyl-2-{[formyl(hydroxy)amino]methyl}propanoyl)-N-[(2,5-difluorophenyl)carbonyl]-L-prolinamide]",,≤ 100 nM
"O=CN(O)C[C@@H](CC1CCCC1)C(=O)N1CCC[C@H]1C(=O)NC(=O)NC1CC1 [Example 117, 1-((2R)-3-cyclopentyl-2-{[formyl(hydroxy)amino]methyl}propanoyl)-N-[(cyclopropylamino)carbonyl]-L-prolinamide]",≤ 100 nM,
"O=CN(O)C[C@@H](CC1CCCC1)C(=O)N1CCC[C@H]1C(=O)NC(=O)c1cccc(F)c1 [Example 11, 1-((2R)-3-cyclopentyl-2-{[formyl(hydroxy)amino]methyl}propanoyl)-N-[(3-fluorophenyl)carbonyl]-L-prolinamide]",,≤ 100 nM
"COC(=O)NC(=O)[C@@H]1CCCN1C(=O)[C@H](CC1CCCC1)CN(O)C=O [Example 16, 1-((2R)-3-cyclopentyl-2-{[formyl(hydroxy)amino]methyl}propanoyl)-N-[(methyloxy)carbonyl]-L-prolinamide]",≤ 100 nM,
